# The supplement of paper PMC8728848
# Some of the results follow.
# Tests used:
# Assay in all cases: glycan array binding signal (z-score within array); higher = stronger binding
# Conditions in all cases: glycan notation: IUPAC condensed, linker removed
# [1] = biological target: Fuc(a1-2)Gal(b1-4)GlcNAc(b1-3)Gal(b1-4)GlcNAc(b1-3)Gal(b1-4)GlcNAc
# Outline: (§1)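 From the Consortium for Functional Glycomics database, 3228 arrays were curated, keeping only those whose protein sequence was available. Binding is given as a within-array Z-score averaged across arrays sharing a protein sequence and across linkers. Negative Z-scores can be read as non-binding.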
# [2] = biological target: Fuc(a1-2)Gal(b1-4)GlcNAc(b1-3)GalNAc
# Outline: as §1
# [3] = biological target: Fuc(a1-2)Gal(b1-4)GlcNAc(b1-3)[Fuc(a1-2)Gal(b1-4)GlcNAc(b1-6)]GalNAc
# Outline: as §1
# [4] = biological target: Fuc(a1-2)Gal(b1-4)GlcNAc(b1-3)[Fuc(a1-3)[Gal(b1-4)]GlcNAc(b1-6)]Gal(b1-4)Glc
# Outline: as §1
# [5] = biological target: Fuc(a1-2)Gal(b1-4)GlcNAc(b1-6)GalNAc
# Outline: as §1
# [6] = biological target: Fuc(a1-2)Gal(b1-4)GlcNAc6S
# Outline: as §1
# [7] = biological target: Fuc(a1-2)Gal(b1-4)[Fuc(a1-3)]GlcNAc
# Outline: as §1
# [8] = biological target: Fuc(a1-2)Gal(b1-4)[Fuc(a1-3)]GlcNAc(b1-2)Man(a1-3)[Fuc(a1-2)Gal(b1-4)[Fuc(a1-3)]GlcNAc(b1-2)Man(a1-6)]Man(b1-4)GlcNAc(b1-4)[Fuc(a1-6)]GlcNAc
# Outline: as §1
# [9] = biological target: Fuc(a1-2)Gal(b1-4)[Fuc(a1-3)]GlcNAc(b1-2)[Fuc(a1-2)Gal(b1-4)[Fuc(a1-3)]GlcNAc(b1-4)]Man(a1-3)[Fuc(a1-2)Gal(b1-4)[Fuc(a1-3)]GlcNAc(b1-2)Man(a1-6)]Man(b1-4)GlcNAc(b1-4)GlcNAc
# Outline: as §1
# [10] = biological target: Fuc(a1-2)Gal(b1-4)[Fuc(a1-3)]GlcNAc(b1-3)Gal(b1-4)[Fuc(a1-3)]GlcNAc
# Outline: as §1
# [11] = biological target: Fuc(a1-2)Gal(b1-4)[Fuc(a1-3)]GlcNAc(b1-3)Gal(b1-4)[Fuc(a1-3)]GlcNAc(b1-3)Gal(b1-4)[Fuc(a1-3)]GlcNAc
# Outline: as §1
# [12] = biological target: Fuc(a1-2)Gal(b1-4)[Fuc(a1-3)]GlcNAc(b1-3)GalNAc
# Outline: as §1
# [13] = biological target: Fuc(a1-2)Gal(b1-4)[Fuc(a1-3)]GlcNAc(b1-3)[Neu5Ac(a2-6)Gal(b1-4)GlcNAc(b1-6)]Gal(b1-4)Glc
# Outline: as §1
# [14] = biological target: Fuc(a1-2)Gal3S(b1-4)GlcNAc
# Outline: as §1
# [15] = biological target: Fuc(a1-2)Gal6S(b1-3)GlcNAc
# Outline: as §1
# [16] = biological target: Fuc(a1-2)Gal6S(b1-3)GlcNAc6S
# Outline: as §1
# Fuc(a1-2)Gal6S(b1-4)Glc = biological target: Fuc(a1-2)Gal6S(b1-4)Glc
# Outline: as §1
# [17] = biological target: Fuc(a1-2)Gal6S(b1-4)Glc6S
# Outline: as §1
# Fuc(a1-2)[Gal(a1-3)]Gal = biological target: Fuc(a1-2)[Gal(a1-3)]Gal
# Outline: as §1
# [18] = biological target: Fuc(a1-2)[Gal(a1-3)]Gal(b1-3)GalNAc
# Outline: as §1
# [19] = biological target: Fuc(a1-2)[Gal(a1-3)]Gal(b1-3)GalNAc(b1-3)Gal(a1-4)Gal(b1-4)Glc
# Outline: as §1
# [20] = biological target: Fuc(a1-2)[Gal(a1-3)]Gal(b1-3)GlcNAc
# Outline: as §1
# [21] = biological target: Fuc(a1-2)[Gal(a1-3)]Gal(b1-3)GlcNAc(b1-2)Man(a1-3)[Fuc(a1-2)[Gal(a1-3)]Gal(b1-3)GlcNAc(b1-2)Man(a1-6)]Man(b1-4)GlcNAc(b1-4)GlcNAc
# Outline: as §1
# [22] = biological target: Fuc(a1-2)[Gal(a1-3)]Gal(b1-3)GlcNAc(b1-2)Man(a1-3)[Fuc(a1-2)[Gal(a1-3)]Gal(b1-3)GlcNAc(b1-2)Man(a1-6)]Man(b1-4)GlcNAc(b1-4)[Fuc(a1-6)]GlcNAc
# Outline: as §1
# [23] = biological target: Fuc(a1-2)[Gal(a1-3)]Gal(b1-3)GlcNAc(b1-3)GalNAc
# Outline: as §1
# [24] = biological target: Fuc(a1-2)[Gal(a1-3)]Gal(b1-3)GlcNAc(b1-6)GalNAc
# Outline: as §1
# [25] = biological target: Fuc(a1-2)[Gal(a1-3)]Gal(b1-4)Glc
# Outline: as §1
# [26] = biological target: Fuc(a1-2)[Gal(a1-3)]Gal(b1-4)GlcNAc
# Outline: as §1
# [27] = biological target: Fuc(a1-2)[Gal(a1-3)]Gal(b1-4)GlcNAc(b1-2)Man
# Outline: as §1
# [28] = biological target: Fuc(a1-2)[Gal(a1-3)]Gal(b1-4)GlcNAc(b1-2)Man(a1-3)[Fuc(a1-2)[Gal(a1-3)]Gal(b1-4)GlcNAc(b1-2)Man(a1-6)]Man(b1-4)GlcNAc(b1-4)GlcNAc
# Outline: as §1
binder,measurement,setting,value
"GroEL (Clostridium difficile), Q18CT5 (protein) MAKEIKFSEETRRALEAGVNKLADTVKVTLGPKGRNVILDKKFGSPLITNDGVTIAKEIELEDRFENMGAQLVKEVATKTNDVAGDGTTTATVLAQAIIREGLKNVTAGANPILLRKGIQKAVTVAVEELKNQSRIVETQEAISQVASISAGDEEVGKLIAEAMEIVGKDGVITVEESQTMNTELDAVEGMQFDRGFVSAYMVTDVDKMEAVLNDPYILITDKKISNIQELLPVLEQIVQQGKKLLIIAEDVEGEALSTLVVNKLRGTFDVVAVKAPGFGDRRKEMLQDIAILTGAQVISEELGYDLKEADLSMLGRASSVKVTKESTTIVDGSGDKKAIEDRVTQIKHQVEQTTSDFDREKLMERLAKLAGGVAVVKVGAATEVELKERKLRIEDALNATRAAVEEGIVAGGGTAFVSVIPAIGTLIESLEGEVKLGAQIVKKALEEPLRQIAINAGLEGAVIVQNVVNSEAETGFDALNEKYVNMIEAGIVDPTKVSRSALQNAASIASTFLTTEAAVADLPEKEDAGMPGMGGGMPGMM",glycan array binding signal (z-score),[1],0.143
same,glycan array binding signal (z-score),[2],-0.559
same,glycan array binding signal (z-score),[3],-1.3
same,glycan array binding signal (z-score),[4],-0.156
same,glycan array binding signal (z-score),[5],-1.24
same,glycan array binding signal (z-score),[6],0.468
same,glycan array binding signal (z-score),[7],-0.392
same,glycan array binding signal (z-score),[8],0.707
same,glycan array binding signal (z-score),[9],-0.388
same,glycan array binding signal (z-score),[10],-0.245
same,glycan array binding signal (z-score),[11],1.87
same,glycan array binding signal (z-score),[12],-1.12
same,glycan array binding signal (z-score),[13],1.13
same,glycan array binding signal (z-score),[14],0.86
same,glycan array binding signal (z-score),[15],1.25
same,glycan array binding signal (z-score),[16],-0.399
same,glycan array binding signal (z-score),Fuc(a1-2)Gal6S(b1-4)Glc,-1.09
same,glycan array binding signal (z-score),[17],0.216
same,glycan array binding signal (z-score),Fuc(a1-2)[Gal(a1-3)]Gal,-0.676
same,glycan array binding signal (z-score),[18],0.203
same,glycan array binding signal (z-score),[19],-0.648
same,glycan array binding signal (z-score),[20],-0.57
same,glycan array binding signal (z-score),[21],-1.07
same,glycan array binding signal (z-score),[22],0.402
same,glycan array binding signal (z-score),[23],-1.2
same,glycan array binding signal (z-score),[24],-1.16
same,glycan array binding signal (z-score),[25],-0.135
same,glycan array binding signal (z-score),[26],0.601
same,glycan array binding signal (z-score),[27],-0.294
same,glycan array binding signal (z-score),[28],0.755
